# Measurements taken from PMC7862700.
# The list shows a part of the results, in another mix than the full data. At the low end of the ranking the order means little.
# Target: SPI1 (UniProt P17947)
# Assay: DAPPL (digital affinity profiling via proximity ligation, sequencing)
# Conditions: 10 mM Tris-HCl pH 7.5, 50 mM NaCl, 1 mM DTT, 4% glycerol, room temperature, 30 min; GST-TFs on glutathione beads, 16-mer random dsDNA library, 0.1% …; high values mean tight binding; double strand, one strand shown; scale: fold enrichment (6-mer frequency, TF over GST control)
row,Sequence,binding signal
1,TCAACA,0.973
2,GATCAC,0.938
3,GTACAC,1.18
4,GCTGAC,1.04
5,TACGTC,1.12
6,GCGATT,0.977
7,GGTTCT,0.93
8,GGTTTG,1.06
9,GTAGAT,0.901
10,CCGGCG,0.97
11,CTAGAC,0.93
12,GACCGG,0.972
13,CAAGTT,0.993
14,TAGAGA,0.828
15,CAATGA,0.99
16,GTCAAA,0.953
17,CCACAT,1.07
18,CGAAGT,0.883
19,TCATCG,0.965
20,CGCTTA,1.24

# Given with tabs: entries from further up
row	Sequence	binding signal
3	GTACAC	1.18
4	GCTGAC	1.04

# Next part:

row,Sequence,binding signal
1,TTTCCA,1.37
2,ACCCTC,1.12
3,AAATCT,1.14
4,CGGCCT,0.995
5,ACTGGG,0.879
6,GATCGA,0.876
7,CAAAGT,0.934
8,TTCCAC,1.42
9,TGGAAC,0.977
10,CTTCCC,3.35
11,GGCGTT,1.03
12,GCCGCA,0.943
13,CTCCAG,1.21
14,ATCTCA,1.12
15,CCGCTG,0.986
16,AGCCCA,0.943
17,TAATCA,1.07
18,TCATAG,0.873
19,GCGAAT,0.991
